{"source": "PubChem BioAssay AID504804 | Drosophila RNAi Screening Center – 2011", "screen": "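Fly genes whose loss lessens doxorubicin-driven cell death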 (primary screen)", "cells": "Drosophila Kc cells", "reagent": "long dsRNA against Drosophila genes, 0.5 µg dsRNA per well", "time to read-out": "96 h (48 h knock-down, then 48 h drug)", "conditions": "doxorubicin 5 µg/ml for 48 h, added 48 h after dsRNA", "detection": "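Viability measured as cellular ATP by luminescence after 48 h knock-down then 48 h doxorubicin at 5 µg/ml; unnormalised plate counts for each replicate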", "scale": "raw ATP luminescence: higher = more viable cells, protection from doxorubicin", "active means": "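z-score of 2 or more over plate mean in both duplicates, retained only when retests and separate dsRNAs confirm the protection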", "note": "In all, the deposit lists about 19,000 reagents; below is a random part of those with a known target gene and a result. Over the whole deposit, 47 (0.25%) are marked active. 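Signals are raw, not normalised; exact z-scores behind calls not deposited; actives needed confirmation, so some wells reaching 2 SD are inactive.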"}
{"predicted target": "CG14655", "amplicon": "DRSC12241", "raw ATP luminescence, replicate 1": 1.71e5, "raw ATP luminescence, replicate 2": 2.17e5, "call": "inactive"}
{"predicted target": "RpS14a", "amplicon": "DRSC18710", "raw ATP luminescence, replicate 1": 23950, "raw ATP luminescence, replicate 2": 24700, "call": "inactive"}
{"predicted target": "CG4020", "amplicon": "DRSC18337", "raw ATP luminescence, replicate 1": 47380, "raw ATP luminescence, replicate 2": 42470, "call": "inactive"}
{"predicted target": "Sobp", "amplicon": "DRSC07312", "raw ATP luminescence, replicate 1": 47867, "raw ATP luminescence, replicate 2": 47887, "call": "inactive"}
{"predicted target": "CG14247", "amplicon": "DRSC14742", "raw ATP luminescence, replicate 1": 59150, "raw ATP luminescence, replicate 2": 64780, "call": "inactive"}
{"predicted target": "CG5861", "amplicon": "DRSC02907", "raw ATP luminescence, replicate 1": 68997, "raw ATP luminescence, replicate 2": 72990, "call": "inactive"}
{"predicted target": "CG8958", "amplicon": "DRSC20134", "raw ATP luminescence, replicate 1": 3.59e5, "raw ATP luminescence, replicate 2": 3.38e5, "call": "inactive"}
{"predicted target": "CG30275", "amplicon": "DRSC04163", "raw ATP luminescence, replicate 1": 43353, "raw ATP luminescence, replicate 2": 57373, "call": "inactive"}
{"predicted target": "CG3909", "amplicon": "DRSC14150", "raw ATP luminescence, replicate 1": 45487, "raw ATP luminescence, replicate 2": 45913, "call": "inactive"}
{"predicted target": "CG30413", "amplicon": "DRSC04001", "raw ATP luminescence, replicate 1": 88343, "raw ATP luminescence, replicate 2": 89380, "call": "inactive"}
{"predicted target": "spin", "amplicon": "DRSC07176", "raw ATP luminescence, replicate 1": 60557, "raw ATP luminescence, replicate 2": 72017, "call": "inactive"}
{"predicted target": "CG14506", "amplicon": "DRSC14858", "raw ATP luminescence, replicate 1": 37480, "raw ATP luminescence, replicate 2": 35420, "call": "inactive"}
